In the series the test system is mice. The following applies: mouse, in vivo. On the procedure:
Physical dependency liability was evaluated in mice by the procedure of Saelens, et al., Arch. Int. Pharmacodynam, 190:213-218, 1971. In this procedure, mice are administered increasing doses of a test compound at intervals on two consecutive days. The last dosage on the second day is followed by intraperitoneal injection of the morphine antagonist, naloxone, at a dosage of 100 mg/kg, and the mice are observed for characteristic jumping behaviour indicative of opiate withdrawals or morphine antagonism. […].

SMILES strings stand for the structures.

Take `CN1CC[C@]23c4c5ccc(O)c4O[C@H]2[C@@H](O)C=C[C@H]3[C@H]1C5.O=S(=O)(O)O` [morphine sulfate]: the “mice jumping after naloxone” value was 5 of 9.

The record behind these values is patent publication US4265912A, “Glaucine lactate salts” (priority 1979, dated 1981).
